# No constants are given. Whether binding was seen depends on the method and setting. Some results given as binding are weak or reduced against the parent protein; the word gives no strength.
# Protein sequences, listed by entry. Tags and fused reporters are not part of them. Lines headed by an entry give the natural chain unless they say otherwise; changes in a name come on top.
# UniProt Q03142: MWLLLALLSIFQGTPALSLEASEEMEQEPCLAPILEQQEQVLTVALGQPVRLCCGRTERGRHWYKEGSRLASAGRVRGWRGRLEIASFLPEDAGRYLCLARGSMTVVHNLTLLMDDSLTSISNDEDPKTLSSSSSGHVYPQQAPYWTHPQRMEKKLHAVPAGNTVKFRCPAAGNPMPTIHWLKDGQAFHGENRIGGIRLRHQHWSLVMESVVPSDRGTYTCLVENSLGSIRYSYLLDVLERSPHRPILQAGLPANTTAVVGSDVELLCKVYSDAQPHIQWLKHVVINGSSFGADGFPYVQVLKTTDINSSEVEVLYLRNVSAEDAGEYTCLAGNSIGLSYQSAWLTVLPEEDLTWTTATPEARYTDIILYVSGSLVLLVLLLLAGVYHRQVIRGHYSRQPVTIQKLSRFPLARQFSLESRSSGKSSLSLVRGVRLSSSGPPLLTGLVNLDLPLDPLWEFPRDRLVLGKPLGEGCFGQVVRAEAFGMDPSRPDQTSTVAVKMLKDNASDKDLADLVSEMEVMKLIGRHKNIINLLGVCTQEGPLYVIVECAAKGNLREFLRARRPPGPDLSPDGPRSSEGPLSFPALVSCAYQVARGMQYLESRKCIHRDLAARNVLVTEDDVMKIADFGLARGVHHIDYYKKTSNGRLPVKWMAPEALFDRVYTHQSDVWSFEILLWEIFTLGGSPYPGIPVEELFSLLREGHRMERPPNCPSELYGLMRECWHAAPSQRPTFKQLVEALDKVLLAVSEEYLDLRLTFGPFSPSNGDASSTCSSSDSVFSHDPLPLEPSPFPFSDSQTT
# Biological target: T1, mouse wild-type FGFR4 (FGFR4 Gly385) (mouse, UniProt Q03142 17-799)
# T1 construct: Endogenous hepatic FGFR4, immunoprecipitated from mouse liver lysates; also called hepatic FGFR4
# Experiment: in vivo SILAC LC-MS/MS of FGFR4 immunoprecipitates from mouse liver
binder,measurement,value
"Beta-klotho (receptor, mouse, UniProt Q99N32 1-1043, looked up, Endogenous protein co-immunoprecipitated with hepatic FGFR4; also called βKlotho) MKTGCAAGSPGNEWIFFSSDERNTRSRKTMSNRALQRSAVLSAFVLLRAVTGFSGDGKAIWDKKQYVSPVNPSQLFLYDTFPKNFSWGVGTGAFQVEGSWKTDGRGPSIWDRYVYSHLRGVNGTDRSTDSYIFLEKDLLALDFLGVSFYQFSISWPRLFPNGTVAAVNAQGLRYYRALLDSLVLRNIEPIVTLYHWDLPLTLQEEYGGWKNATMIDLFNDYATYCFQTFGDRVKYWITIHNPYLVAWHGFGTGMHAPGEKGNLTAVYTVGHNLIKAHSKVWHNYDKNFRPHQKGWLSITLGSHWIEPNRTDNMEDVINCQHSMSSVLGWFANPIHGDGDYPEFMKTGAMIPEFSEAEKEEVRGTADFFAFSFGPNNFRPSNTVVKMGQNVSLNLRQVLNWIKLEYDDPQILISENGWFTDSYIKTEDTTAIYMMKNFLNQVLQAIKFDEIRVFGYTAWTLLDGFEWQDAYTTRRGLFYVDFNSEQKERKPKSSAHYYKQIIQDNGFPLKESTPDMKGRFPCDFSWGVTESVLKPEFTVSSPQFTDPHLYVWNVTGNRLLYRVEGVRLKTRPSQCTDYVSIKKRVEMLAKMKVTHYQFALDWTSILPTGNLSKVNRQVLRYYRCVVSEGLKLGVFPMVTLYHPTHSHLGLPLPLLSSGGWLNMNTAKAFQDYAELCFRELGDLVKLWITINEPNRLSDMYNRTSNDTYRAAHNLMIAHAQVWHLYDRQYRPVQHGAVSLSLHCDWAEPANPFVDSHWKAAERFLQFEIAWFADPLFKTGDYPSVMKEYIASKNQRGLSSSVLPRFTAKESRLVKGTVDFYALNHFTTRFVIHKQLNTNRSVADRDVQFLQDITRLSSPSRLAVTPWGVRKLLAWIRRNYRDRDIYITANGIDDLALEDDQIRKYYLEKYVQEALKAYLIDKVKIKGYYAFKLTEEKSKPRFGFFTSDFRAKSSVQFYSKLISSSGLPAENRSPACGQPAEDTDCTICSFLVEKKPLIFFGCCFISTLAVLLSITVFHHQKRRKFQKARNLQNIPLKKGHSRVFS",binding,binds

# — US20110179505A1, “RODENT CANCER MODEL FOR HUMAN FGFR4 ARG388 POLYMORPHISM” (priority 2008, published 2011)
